Each structure is given as a SMILES string. The list shows a part of the results. The main result of the screen is listed elsewhere. These columns were measured beside it and carry no call. The list favours compounds with an active or inconclusive main result. Words in brackets tell the shape of the fitted curve; partial curves, single points and poor fits give uncertain potencies.

This experiment can be described thus: qHTS Assay for Lipid Storage Modulators in Drosophila S3 Cells.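 On cell number change: cells counted by Cell Tracker Red CMTPX staining in the red channel.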 The note with it: BODIPY lipid droplet fluorescence, 18-24 h; for cell number change: measured here: cell count max response, cells fed with added oleic acid. The method, boiled down:
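Drosophila S3 cells loaded with oleic acid (400 uM, as added) and compounds at several concentrations; lipid droplets imaged by 488-nm laser-scanning cytometry, 500–530 nm intensity and object ratio to cell channel. Percent activity normalized to 20 uM Triacsin C.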
Background: Quantitative high-throughput screening tests each substance at several concentrations.

The mark [1] stands for this setting: measured here: cell number channel AC50, cells fed with added oleic acid.
Setting [2] is: measured here: lipid fluorescence (Fed channel) AC50, cells fed with added oleic acid.

Take `Cc1ccc(S(=O)(=O)Nc2ccc3c(c2)CCC3)cc1C`: the cell number change is -46.1%. The AC50 under setting [1] was 29.1 µM [falling, single point]. Besides, the AC50 under setting [2] was 29.1 µM [falling, single point].

For the molecule `COc1ccc(-c2cc(-c3ccccc3)nc(Cl)n2)cc1OC`, the cell number change is -5.19%. Besides, the AC50 under setting [2] is 29.1 µM [falling, single point].

Consider `O=C(Nc1ccc(N2CCN(C(=O)c3ccc(Cl)cc3)CC2)cc1)c1ccc2c(c1)OCCO2`, for which the cell number change was -14%. Also, the AC50 under setting [2] was 5.8 µM [rising, partial curve].

For `O=C(CSc1nnnn1C1CCCC1)c1ccc2c(c1)OCCO2`, under setting [2], the AC50 is 0.517 µM [falling, single point].

As to `COc1ccc(/C=N/NC(=O)c2ccccc2O)cc1COc1ccccn1`, the cell number change was -6.34%. Besides, the AC50 under setting [2] is 5.17 µM [falling, partial curve].

On to `COc1ccc(C2Nc3cccc4cccc(c34)N2)cc1Br`, for which the AC50 under setting [2] is 6.51 µM [falling, single point].

For the molecule `CN(C)/N=C/c1cc([N+](=O)[O-])ccc1O`, the cell number change was -19.5%. Moreover, under setting [2], the AC50 is 0.0291 µM [falling, full curve, poor fit].

Consider `COc1ccc(C(=O)N2CC(=O)Nc3ccc(C)cc3C2c2ccccc2)cc1` (stereo unspecified), for which the cell number change is -2.78%.

As to `Brc1ccc(OCc2nc(-c3ccccn3)n[nH]2)cc1`, under setting [2], the AC50 is 6.51 µM [rising, single point].

As for `C/C(CC(=O)Nc1ccc(C)c(Cl)c1)=N\NC(=O)c1ccncc1`, the cell number change was -27.9%.

`O=C(Cc1ccc(-n2c(=O)[nH]c3ccsc3c2=O)cc1)N1CCN(c2ccc(Cl)cc2)CC1`: the cell number change is 10.9%. Further, the AC50 under setting [1] is 0.517 µM [rising, full curve]. Moreover, the AC50 under setting [2] is 16.4 µM [rising, single point].

On to `CCCCCCNC(=O)CC(NS(=O)(=O)c1ccc(NC(C)=O)cc1)C(C)C` (stereo unspecified), for which the cell number change came to 11%.

Take `Nc1nc(SCC(=O)Nc2ccccc2)nc2nc3c(cc12)CCCC3`: the cell number change is 1.65%. Under setting [2], the AC50 was 4.61 µM [rising, single point].

In the case of `COc1ccc(OC(C)C(=O)N2CCc3ccccc3C2)cc1` (stereo unspecified), the cell number change was 6.34%. In addition, under setting [2], the AC50 was 23.1 µM [rising, partial curve].

For `C=CCNC(=S)N/N=C/c1ccccc1OCCOc1ccccc1`, the cell number change came to 11.4%. Further, the AC50 under setting [2] is 0.58 µM [rising, full curve, poor fit].

For `CCn1c(COc2ccc(OC)cc2)nnc1SCc1nc2ccccc2c(=O)[nH]1`, the cell number change turned out to be 70.1%. Further, under setting [1], the AC50 is 23.1 µM [rising, single point]. Further, under setting [2], the AC50 is 23.1 µM [rising, single point].

As for `CC(=O)Nn1cnc2c(c1=O)C1(CCCCC1)Cc1ccccc1-2`, the cell number change stood at 124%. Under setting [1], the AC50 was 29.1 µM [rising, single point]. Moreover, the AC50 under setting [2] was 29.1 µM [rising, single point].

In the case of `CSc1ccccc1NC(=O)c1ccc(N2CC3CC(C2)c2cccc(=O)n2C3)c(NC(=O)c2ccncc2)c1` (stereo unspecified), the cell number change was found to be 12.5%. Besides, the AC50 under setting [2] was 6.51 µM [falling, single point].

For `C[C@H](O)c1[nH]c2cc(F)ccc2c1[C@H](C)O`, the cell number change came to 7.77%.

Regarding `CCOC(=O)N1CCN(CC(O)c2ccc3cc[nH]c3c2)CC1` (stereo unspecified), the cell number change is -30.8%. Moreover, the AC50 under setting [1] was 6.51 µM [falling, single point].

For the molecule `Nc1ccc(S(=O)(=O)NC2=NCCCCC2)cc1N`, the cell number change was -12%. Besides, the AC50 under setting [2] is 6.51 µM [rising, single point].

Consider `Cc1cc(=O)[nH]c(SCC2COC3(CCCCC3)O2)n1` (stereo unspecified), for which the cell number change was determined as 15%. Moreover, the AC50 under setting [2] is 1.3 µM [falling, full curve, poor fit].

In the case of `CC1CCN(S(=O)(=O)c2ccc(NC(=O)Cn3nnc(-c4ccccc4F)n3)cc2)CC1`, the cell number change is -9.35%. The AC50 under setting [2] was 0.411 µM [rising, full curve].

For `CN(Cc1ccc(Br)cc1)C(=O)CCN1C(=O)c2cccc([N+](=O)[O-])c2C1=O`, the cell number change is 8.7%. The AC50 under setting [2] was 32.6 µM [falling, partial curve].

`O=C(CN1C(=O)NC2(CCCC2)C1=O)Nc1cc(Cl)ccc1N1CCOCC1`: the cell number change came to 16.5%.

On to `COc1cc2c(cc1NC(=O)CSc1ccc(Cl)cc1)oc1ccccc12`, for which the cell number change was -0.603%. Besides, the AC50 under setting [2] is 1.16 µM [rising, full curve].

For the molecule `Cc1ccccc1N1CCN(C2CCCN(C(=O)CCN3CCCCO3)C2)CC1` (stereo unspecified), the cell number change was -13.9%. Further, the AC50 under setting [2] was 29.1 µM [rising, single point].

On to `Cc1ccc(S(=O)(=O)NC(CC(=O)N2CCc3ccccc32)c2ccco2)cc1` (stereo unspecified), for which the cell number change came to 8.85%. In addition, the AC50 under setting [2] was 14.6 µM [rising, single point].

As for `O=C(NNC(=S)NCc1ccccc1)c1ccccc1OC(F)F`, the cell number change is 15.3%. Besides, the AC50 under setting [2] is 2.59 µM [rising, full curve].

Regarding `CN1C(=O)CS/C1=N\NC(=O)COc1cccc2cccnc12`, the cell number change is -25.8%. Also, under setting [2], the AC50 was 16.4 µM [falling, single point].

Take `Cc1ncc(C[n+]2csc(CCOC(=O)CC34CC5CC(CC(C5)C3)C4)c2C)c(N)n1`: the cell number change was -57.2%. Also, the AC50 under setting [1] is 4.61 µM [falling, full curve]. In addition, the AC50 under setting [2] was 25.9 µM [falling, single point].

Turning to `O=C(/C=C/c1ccc(S(=O)(=O)N2CCOCC2)cc1)NC(=S)NCCCn1ccnc1`, under setting [1], the concentration at half-maximal activity (AC50) is 0.651 µM [rising, full curve, poor fit].

As for `Cc1ccc(NC(=O)COC(=O)/C=C/c2c(C)nn(-c3ccc(F)cc3)c2Cl)cc1F`, the cell number change amounted to 6.23%.

In the case of `CCn1c(=O)cc(OCC(=O)NCCCN2CCC(C)CC2)c2ccccc21`, the AC50 under setting [1] is 3.66 µM [rising, partial curve, poor fit].

Take `CCOc1ccccc1NC(=O)C(NCCN(C)C)c1ccccc1` (stereo unspecified): the cell number change was -20.3%. Moreover, the AC50 under setting [2] is 8.2 µM [falling, partial curve, poor fit].

Take `COC(=O)COc1ccc(S(=O)(=O)Nc2ccc(NC(C)=O)cc2)cc1`: under setting [2], the AC50 is 4.11 µM [falling, partial curve].

Consider `Cc1cccc(N2C(=O)N3[C@@H]4c5ccccc5OC[C@@H]4[C@@H](c4ccccc4)[C@@]3(C)C2=O)c1`, for which the cell number change turned out to be 31.4%. Under setting [1], the AC50 was 29.1 µM [rising, partial curve, poor fit].

On to `CNc1ncc(C(=O)C(C)(C)C)s1`, for which the cell number change amounted to 11.9%. Also, the AC50 under setting [2] was 0.13 µM [falling, full curve, poor fit].

Regarding `COc1ccc(-c2oc3ccccc3c2C(=O)Oc2ccccc2)cc1`, the cell number change was 24.3%. For the same molecule, under setting [2], the AC50 was 29.1 µM [rising, single point].

In general, AC50 refers to the concentration at which the activity in the assay is half-maximal. Higher therefore signals weaker potency.

(Values after PubChem BioAssay AID2685 (National Center for Advancing Translational Sciences (NCATS), 2010).)
